Laboratory results as given in patent US20160046678A1 (ZYNGENIA, published 2016).
These are yes or no findings as the source states them, for the method shown. Some results given as binding are weak or reduced against the parent protein; the word gives no strength.

By UniProt entry, the sequences of proteins in these tests, tags left out. Residues count along the entry.
UniProt P08069, residues 31-932: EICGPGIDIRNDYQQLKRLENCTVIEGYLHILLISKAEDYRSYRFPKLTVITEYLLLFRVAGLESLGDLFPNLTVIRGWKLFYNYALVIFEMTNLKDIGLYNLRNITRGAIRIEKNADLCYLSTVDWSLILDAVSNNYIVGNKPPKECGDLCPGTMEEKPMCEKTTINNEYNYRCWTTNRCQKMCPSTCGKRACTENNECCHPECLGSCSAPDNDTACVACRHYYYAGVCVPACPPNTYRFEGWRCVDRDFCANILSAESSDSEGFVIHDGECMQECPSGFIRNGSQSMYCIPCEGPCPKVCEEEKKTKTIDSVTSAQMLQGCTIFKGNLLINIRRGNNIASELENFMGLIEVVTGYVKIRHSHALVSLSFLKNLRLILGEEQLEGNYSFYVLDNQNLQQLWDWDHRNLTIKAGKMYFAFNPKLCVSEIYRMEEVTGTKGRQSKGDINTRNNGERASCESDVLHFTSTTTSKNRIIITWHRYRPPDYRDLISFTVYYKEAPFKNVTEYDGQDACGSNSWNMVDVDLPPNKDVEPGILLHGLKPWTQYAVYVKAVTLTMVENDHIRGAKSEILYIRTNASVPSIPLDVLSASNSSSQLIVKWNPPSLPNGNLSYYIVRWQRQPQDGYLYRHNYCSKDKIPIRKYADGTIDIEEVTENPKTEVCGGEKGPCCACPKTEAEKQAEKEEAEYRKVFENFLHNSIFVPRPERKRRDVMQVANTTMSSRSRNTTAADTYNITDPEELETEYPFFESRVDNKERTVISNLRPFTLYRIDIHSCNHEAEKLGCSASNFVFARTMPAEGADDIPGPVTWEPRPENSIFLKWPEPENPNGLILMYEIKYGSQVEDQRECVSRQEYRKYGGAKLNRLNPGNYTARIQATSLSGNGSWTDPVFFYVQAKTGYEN

Each binder was assayed against IGF1R (UniProt P08069) (assay: MRD identification, Example 48).

binding, binds:
LCREFQELCF [IGF507]
VYALCREFSELCFYGN [IGF402]
APPLCLEFRELCFGEQ [IGF421]
AGALCAEFPELCFGGT [IGF404]
QHLLCIEFNELCFNDV [IGF393]
VQPLCLEFSELCFDSA [IGF407]
IPPLCLEFWELCFDAP [IGF394]
AHPLCLEFPVLCFDDE [IGF387]
AYALCHEFQELCFETT [IGF391]
PHPLCREFPDLCFDHS [IGF411]
IPPLCLEFWELCFDER [IGF410]
PPSLCLEFPELCFHRS [IGF405]
PHWLCEEFEELCFEAI [IGF412]
DRLLCSEFYELCFDDN [IGF413]
YSSLCLEFSELCFDQM [IGF416]
IPQLCLEFTDLCFEDT [IGF423]
RMDLCREFTELCFTDS [IGF425]
VPPLCLEFTELCFIID [IGF409]
YFYWFQEMVM [IGF498]
VPHLCIEFAELCFEGT [IGF424]
FYQWFEKQLM [IGF500]
RPALCGEFKELCFDGA [IGF417]
PHRLCIEFPELCFDVV [IGF397]
AALLCHEFTELCFLEA [IGF392]
PHALCLEFHELCFDSN [IGF430]
EFYQGLERLV [IGF485]
PPLLCLEFPVLCFDSP [IGF427]
GHKLCTEFIELCFDVN [IGF400]
RPVLCIEFPELCFNET [IGF388]
EHILCQEFSELCFNRD [IGF408]
PAALCLEFSELCFTQQ [IGF414]
ADRLCREFSELCFDVV [IGF386]
ADALCAEFKELCFNIK [IGF399]
IPALCIEFSELCFWPS [IGF406]
RPSLCQEFVELCFEEA [IGF396]
DEQLCLEFVELCFEQT [IGF401]
VHQLCMEFEELCFGGA [IGF429]
AQALCLEFMELCFDVR [IGF398]
DVKLCQEFPELCFESY [IGF389]
ECDFYCGIYTL [IGF504]
YRALCFEFAELCFDEN [IGF431]
PHWLCLEFAELCFGSG [IGF420]
AHRLCMEFAELCFGNA [IGF395]
YNALCNEFIELCFHVN [IGF419]
AHQLCIEFAELCFNDG [IGF426]
PHALCLEFSELCFWSL [IGF428]
VPALCFEFAELCFHIE [IGF390]
